Results reported in US7323168B2, “Immunotherapy for chronic myelocytic leukemia” (Immunomedics, Inc., priority 2000, dated 2008).
At least one structure is not confirmed: it was looked up by name or label, or the drawing left a doubt.

Assays:
[1] = system: acute promyelocytic leukemia malignant cells; test: Treating an APML patient with retinoic acid, then naked humanized MN-3; assay type: in vivo; details: APML patient on retinoic acid therapy
[2] = system: NCA-90 in acute promyelocytic leukemia cells; details: cited from earlier work

In the case of `CC1=C(/C=C/C(C)=C/C=C/C(C)=C/C(=O)O)C(C)(C)CCC1` [retinoic acid], the “NCA-90 on the malignant cells” value [1] is given as “induced” and the “expression of NCA-90” value [2] is given as “enhances”.
